Assay results reported in PubChem BioAssay AID1347426 (Functional Genomics Laboratory (NCATS/FGL), 2020).
In all, about 31,000 sequences went through this assay and about 1,400 (4.5%) were called active.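 How the source made its calls: active means median seed-adjusted z-score above 1 or below -1; inactive means the rest.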 Some of the results follow.

Experiment: Novel Modifiers of Survival Motor Neuron (SMN) Protein: Gene Identification via Genome-wide siRNA Screen;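 further: luminescence tracks full-length SMN protein made from the SMN2 reporter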
Settings: HEK293T SMN2-luciferase reporter, siRNA knockdown, 72 h; actives lie on both sides
Summary of the method: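 HEK293T cells stably carrying an SMN2 promoter/splicing cassette–luciferase reporter were reverse-transfected with 1 pmol siRNA per well (druggable-genome library, 3 siRNAs per gene) and grown 72 h at 37 °C. Luminescence, normalized to negative-control siRNA and log10-transformed, was scored as MAD.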

Sequence | median seed-adjusted z-score
CCCUAUAUUUCAAACAUCUTT against PLOD1 | inactive: 0.481
GCAUGACUGUACCCAUGAATT against SLC3A1 | inactive: -0.33
CCUCGCAACUGGAAAGACATT against ATP2C1 | inactive: -0.112
CCAUGUACCUUGAAGUGCATT against NCAM1 | inactive: 0
AGAAACCACUCUUUAAGAATT against ABCF1 | inactive: -0.221
CCCUCACACUAAUAGAACATT against SLAMF7 | inactive: -0.478
CCGGGUUAAUUACCACCUUTT against MTHFR | inactive: 0
GAAAGCAACUGACACUCUUTT against ATP2C2 | inactive: -0.302
CUAGGAAGAUAAUACCAGATT against BTRC | inactive: -0.0819
AGUGGAUUAUGGAUCUCCATT against TXNL4B | inactive: 0.762
GGAUUACGCCCUCUUCACATT against NPHS1 | inactive: -0.0505
GAAUAGGCACUGUUACUUUTT against HNRNPM | inactive: 0.499
GGAAAAUCAAUAUAUCACUTT against ADH6 | inactive: -0.132
CGAGCAUUAAUUAAUGAUATT against GPR137C | inactive: -0.405
GCUAAUGACAAAUCGCUCATT against MSH4 | inactive: 0
CCACCUGUACAGCACGGUATT against TGFB1I1 | inactive: 0.887
CGGGAUAAUUUUGACAAGATT against NXF2 | inactive: -0.0513
GAAAUUGAAAUGCACUCUATT against KDSR | inactive: -0.108
CCACAGACCUUGUGACCGATT against ZNF746 | inactive: 0.1
GCUCACGAUUUGUUACACUTT against C5AR1 | inactive: 0.366
ACAUGGUCCAAUCCUCCUATT against FBP2 | inactive: 0
GGACUAAUGUUACACCAAUTT against KLHL12 | inactive: -0.0991
GGACUUGAAUUGACUAGUUTT against SSH2 | inactive: 0.357
GGUGGUGAGUUGUUCAGCATT against MAPKAPK3 | inactive: -0.506
GGAGCAUUGAUAUACGUCATT against RRAGC | inactive: -0.557
GUAUGGAUCUGAACUAGAUTT against TPH1 | inactive: -0.055
GGACUUCUAUGAAGGGCAATT against UPP1 | inactive: -0.135

Sequence | median seed-adjusted z-score
GCCUGUCUGCUCUACGAAATT against APOBEC1 | inactive: -0.323
GGACUACGCUGCAAUUAGATT against RALA | inactive: 0.553
AGACGGCCGUCAUGACGAATT against MATK | inactive: -0.754
GGAAGAUACCUGGAGGUUUTT against LILRB3 | inactive: 0.0304
GGUGUAUUGGAGUCACAAATT against PTGFR | inactive: 0
GAGAAAGUGUGAACUUACATT against XRCC2 | inactive: 0
CCAUGGGAGCUAUUGAUUUTT against GPLD1 | inactive: 0.0152
AAGCGAAACUGUCAGAGGATT against RAX | inactive: -0.176
GACCAAAGAUGGAUUAAUATT against SLC25A13 | inactive: 0.00924
GCUUGAUAGAGUUAUGAUATT against TIGD2 | inactive: -0.13
CCCGUGAGGUUGUCAAUAATT against NDUFS7 | inactive: -0.386
CAGGAACCGUGUGGAUACATT against NDUFB8 | inactive: -0.468
GGUGAGCACCGGCAACUAUTT against PICK1 | inactive: -0.136
CAUCAACUAUGGGAUAAUATT against SLC17A2 | inactive: 0.141
GACUACCUGAGAUCACUAATT against RAD52 | inactive: -0.737
GAUGAAAACCCUACAGUUUTT against GPR55 | inactive: -0.114
GGUUUGAAAUUCUAACAAATT against TXNDC6 | inactive: 0.156
GUGACCAUAUCGUCGAUUATT against PCDHB14 | inactive: -0.229
GAUUACAACCUGUAUCGAATT against THOC1 | active: -3.04
GUACAGGGAGCAGAUCAAATT against HRAS | inactive: -0.85
CGACCUACCCGAUAGAUGATT against TSTA3 | inactive: 0.155
CAGACAAAUUUUAACCACATT against SLC17A8 | inactive: -0.332
GGUGGGUGGUGAGAUCAAUTT against KRT17 | inactive: -0.0871
CUGUUAUUCUUGCUCGUGUTT against LEPROT | inactive: -0.17
CACCUACUGUAGAGGUGAATT against GPRC6A | inactive: 0
CCACAUUUGUGACGCAAAATT against TPSAB1 | inactive: 0.197
GGAGUGUCAAGAUAUCAAUTT against LTBP2 | inactive: 0.0496

Ten entries from above in another layout.
Sequence,median seed-adjusted z-score
GGACUACGCUGCAAUUAGATT against RALA,inactive: 0.553
GGAAGAUACCUGGAGGUUUTT against LILRB3,inactive: 0.0304
GGUGUAUUGGAGUCACAAATT against PTGFR,inactive: 0
CCAUGGGAGCUAUUGAUUUTT against GPLD1,inactive: 0.0152
GACCAAAGAUGGAUUAAUATT against SLC25A13,inactive: 0.00924
GCUUGAUAGAGUUAUGAUATT against TIGD2,inactive: -0.13
GACUACCUGAGAUCACUAATT against RAD52,inactive: -0.737
GGUUUGAAAUUCUAACAAATT against TXNDC6,inactive: 0.156
CAGACAAAUUUUAACCACATT against SLC17A8,inactive: -0.332
CUGUUAUUCUUGCUCGUGUTT against LEPROT,inactive: -0.17
